# At least one compound was matched to its structure with a doubt left.
# Tested on: ras^G12V p53^RNAi pten^RNAi apc^RNAi animals (adult hindgut)
# Assay: Dissemination (distant migration) after compound feeding, four-hit model
# Assay type: in vivo, Drosophila
# Details: fed together with low non-toxic bortezomib (1 μM)
# Method: Targeted expression in the adult hindgut: Multigenic combinations were targeted to the adult hindgut using the hindgut specific gal4 line byn-gal4 (V. Hartenstein) and tub-gal80^ts (Bloomington). Crosses were kept at 16° C. to keep the transgenes silent during development and adult females were transferred to 29° C. to induce transgene expression. In addition, GFP and Dcr2 (Dicer 2) were co-expressed to mark the hindgut cells and to facilitate RNAi-mediated knock-down, respectively.
# Compound Feeding: Compound treated food was made by diluting compound stocks (made in 100% DMSO) in semi-defined Drosophila medium to achieve a final concentration of 0.5% DMSO (empirically determined as the non-toxic DMSO dose in semi-defined Drosophila medium). Adult flies were kept on compound treated medium in standard Drosophila vials for 7 days (30 flies/vial, 1 ml food/vial) and provided with fresh compound food every other day. […]
# Imaging and Scoring: Fluorescence images were taken using a Leica TCS SPE confocal microscope and processed using the Leica LAS-AF software. […] Distant migration was imaged and scored using a Leica MZ16F dissecting scope with a GFP filter under 10× magnification.
# Statistical Analysis: Statistical significance for the distant migration assay was calculated using Fisher's exact test as this test allows the analysis of contingency tables where sample sizes are relatively small. […]
compound,measurement,value
CO[C@H]1C[C@@H]2CC[C@@H](C)[C@@](O)(O2)C(=O)C(=O)N2CCCC[C@H]2C(=O)O[C@H]([C@H](C)C[C@@H]2CC[C@@H](O)[C@H](OC)C2)CC(=O)[C@H](C)/C=C(\C)[C@@H](O)[C@@H](OC)C(=O)[C@H](C)C[C@H](C)/C=C/C=C/C=C/1C [rapamycin],dissemination in combination with bortezomib,enhanced distant migration

# — patent US20160022757A1, “THERAPEUTIC METHODS FOR TREATING SOLID TUMORS AND RELATED DIAGNOSTIC METHODS” (ICAHN SCHOOL OF MEDICINE AT MOUNT SINAI, priority 2013, published 2016)
